For at least one compound, name, drawing or mass did not settle the structure.
Assay: Equilibrium aqueous solubility
Type: physicochemical
Conditions: supernatant of solubility test in water
Method: Agilent 1260/1100 HPLC was utilized and detailed chromatographic conditions for purity and solubility measurement are listed in Table 5.
About 5 mg of each crystal type of solid (Form A of BBR-UDCA and Form D of BBR-UDCA, respectively) was weighed in separate 3-mL bottle, suspended into 1 mL of water, slurried (1000 rpm) at RT for 24 hours, and then centrifuged at 10000 rpm for 3 minutes. The resulting residual solids were characterized by XRPD and supernatant was measured by HPLC-DAD/ELSD. Due to the poor UV absorption of UDCA, DAD was used as the detector only for BBR and ELSD was used for both BBR and UDCA. […] The reason of the deviation from 1:1 may be that after HTD 1801 dissolving in water, a small amount of disproportionation occurred and it was hardly detected by XRPD due to its limited amount.

**Q.** Which “molar ratio (BBR:UDCA)” value does the source give for `COc1ccc2cc3[n+](cc2c1OC)CCc1cc2c(cc1-3)OCO2.C[C@H](CCC(=O)[O-])[C@H]1CC[C@H]2[C@@H]3[C@@H](O)C[C@@H]4C[C@H](O)CC[C@]4(C)[C@H]3CC[C@]12C` [Form A, berberine ursodeoxycholate] here?
**A.** 0.94:1

Source: patent US20210251981A1, “SOLID FORMS OF BERBERINE URSODEOXYCHOLATE AND COMPOSITIONS AND METHODS THEREOF” (SHENZHEN HIGHTIDE BIOPHARMACEUTICAL, LTD., priority 2017, published 2021)
